Reference: article PMC5824423
Results are given in words; binding and its absence hold for the method and conditions named. In cells and extracts the contact can be indirect. Some binding calls cover weakened binding; strength is not graded here.

T1: four and a half LIM domain protein 2 (FHL2) (rat (endogenous in NRK-52E)) (UniProt O35115)
T1 sequence: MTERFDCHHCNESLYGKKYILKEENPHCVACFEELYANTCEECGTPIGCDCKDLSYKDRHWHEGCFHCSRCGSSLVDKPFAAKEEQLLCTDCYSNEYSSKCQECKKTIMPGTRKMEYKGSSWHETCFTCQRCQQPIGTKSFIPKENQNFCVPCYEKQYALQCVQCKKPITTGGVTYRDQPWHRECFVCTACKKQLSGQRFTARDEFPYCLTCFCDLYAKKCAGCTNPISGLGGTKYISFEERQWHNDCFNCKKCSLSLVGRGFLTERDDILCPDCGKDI

T2: β-catenin (rat (endogenous in NRK-52E)) (UniProt Q9WU82)
T2 sequence: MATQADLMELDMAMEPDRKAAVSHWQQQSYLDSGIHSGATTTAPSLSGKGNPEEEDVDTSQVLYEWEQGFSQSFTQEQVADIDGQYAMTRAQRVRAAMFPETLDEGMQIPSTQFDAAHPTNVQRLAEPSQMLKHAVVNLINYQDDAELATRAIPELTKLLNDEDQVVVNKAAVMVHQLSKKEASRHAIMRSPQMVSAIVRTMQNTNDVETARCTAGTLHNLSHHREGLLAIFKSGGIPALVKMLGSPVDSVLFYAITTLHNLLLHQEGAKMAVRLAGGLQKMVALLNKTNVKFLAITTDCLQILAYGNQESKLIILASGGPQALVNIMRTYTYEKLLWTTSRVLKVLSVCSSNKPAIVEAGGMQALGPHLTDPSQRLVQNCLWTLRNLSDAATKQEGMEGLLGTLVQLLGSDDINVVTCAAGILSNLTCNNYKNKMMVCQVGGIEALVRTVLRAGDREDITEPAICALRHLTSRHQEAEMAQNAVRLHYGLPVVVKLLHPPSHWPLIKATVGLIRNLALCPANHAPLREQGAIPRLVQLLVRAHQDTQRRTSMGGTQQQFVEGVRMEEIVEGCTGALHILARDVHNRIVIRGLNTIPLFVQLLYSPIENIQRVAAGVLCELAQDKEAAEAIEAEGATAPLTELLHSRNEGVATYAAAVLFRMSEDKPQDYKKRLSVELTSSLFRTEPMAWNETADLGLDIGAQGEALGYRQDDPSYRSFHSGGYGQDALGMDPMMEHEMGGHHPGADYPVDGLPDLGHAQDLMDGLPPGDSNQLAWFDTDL

B1: β-catenin (protein, UniProt Q9WU82 1-781)
chain: T2 sequence
B2: four and a half LIM domain protein 2 (FHL2) (protein, UniProt O35115 1-279)
chain: T1 sequence

Assays:
[1] = biological target: T1, four and a half LIM domain protein 2 (FHL2) (rat (endogenous in NRK-52E)); assay: co-IP; whole cell lysates of NRK-52E cells with or without TGF-β1 treatment; nondenaturing lysis buffer (1% Triton X-100, 0.01 M Tris-HCl pH 8.0, 0.14 M NaCl); IP with anti-FHL2 or anti-β-catenin at 4°C overnight, protein A/G Plus-agarose; blot for the other protein
[2] = biological target: T1, four and a half LIM domain protein 2 (FHL2) (rat (endogenous in NRK-52E)); assay: co-IP; nuclear protein extracted from NRK-52E cells with or without TGF-β1 treatment; IP with anti-FHL2, blot for β-catenin
[3] = biological target: T2, β-catenin (rat (endogenous in NRK-52E)); assay: co-IP; whole cell lysates of NRK-52E cells with or without TGF-β1 treatment; nondenaturing lysis buffer (1% Triton X-100, 0.01 M Tris-HCl pH 8.0, 0.14 M NaCl); IP with anti-FHL2 or anti-β-catenin at 4°C overnight, protein A/G Plus-agarose; blot for the other protein

Binder | binding [1] | binding [2] | binding [3]
B1 | binds | binds | –
B2 | – | – | binds
